Measurements reported in PubChem BioAssay AID686937 (Drosophila RNAi Screening Center, 2013)
Aim: 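Knock-downs that reduce output of a secreted reporter enzyme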 (primary screen). System: Drosophila S2 cells expressing secreted horseradish peroxidase. Reagents: long dsRNA against Drosophila genes. Timing: about 5.5 days (5 days dsRNA, then 12 h reporter induction). Treatment: reporter expression induced after 5 days of dsRNA, read 12 h later; inducer not stated. Read-out: 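Chemiluminescent measurement of peroxidase in the medium 12 h after reporter induction, following 5 days of dsRNA, given as a z-score per plate; higher means more secretion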. Reading the numbers: z-score: higher = more reporter secreted into medium.
In all, the deposit lists about 23,000 reagents; this is an unselected part of those with a known target gene and a result. 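Reduced-secretion tags in replicate 1 do not always agree with the z-scores; no criterion for assigning the tags was given.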 Names joined by + are all predicted targets of the reagent. The record does not give: the amount of reagent.

| gene knocked down | DRSC id | z-score, replicate 1 | z-score, replicate 2 | phenotype, replicate 1 |
| --- | --- | --- | --- | --- |
| CG46339 | DRSC14136 | 0.24 | 0.28 | – |
| CG9775 | DRSC12330 | 0.13 | 0.3 | – |
| CG9775 | DRSC22667 | -1.18 | 0.01 | – |
| CG1136 | DRSC08184 | 0.22 | 0.19 | – |
| CG18130 | DRSC19790 | 0.45 | 0.27 | – |
| exp (expansion) | DRSC06313 | -0.59 | 0.07 | – |
| Pfdn5 (Prefoldin 5) | DRSC16183 | 0.16 | 0.29 | – |
| CG5013 | DRSC15695 | 0.15 | 0.75 | – |
| Jwa | DRSC02048 | 0.45 | 0.34 | – |
| CG1513 | DRSC05194 | -0.17 | – | – |
| CG1513 | DRSC06553 | 0.81 | 0.68 | – |
| CG1513 | DRSC06554 | 0.32 | 0.25 | – |
| Ccp84Ab | DRSC12587 | -0.04 | -1.13 | – |
| Nf-YA (Nuclear factor Y-box A) | DRSC10385 | -3.39 | -4.37 | reduced secretion |
| COX6AL2 + Ir75d | DRSC10081 | 0.15 | 0.5 | – |
| Vha100-5 (Vacuolar H[+] ATPase 100kD subunit 5) | DRSC02175 | -0.19 | 0.02 | – |
| CG14624 | DRSC18634 | 0.32 | 0.33 | – |
| CtsL2 (Cathepsin L2) | DRSC06978 | 0.31 | 0.31 | – |
| CG3740 | DRSC18508 | 0.21 | 0.39 | – |
| Naam (Nicotinamide amidase) | DRSC16252 | 0.33 | 0.39 | – |
| CG9922 | DRSC16579 | 0.33 | 0.14 | – |
| GABA-B-R3 (metabotropic GABA-B receptor subtype 3) | DRSC00561 | 0.29 | 0.28 | – |
| Adgf-E (Adenosine deaminase-related growth factor E) | DRSC05973 | 0.04 | -0.12 | – |
| nuf (nuclear fallout) | DRSC11379 | 0.39 | 0.45 | – |
| nuf (nuclear fallout) | DRSC22524 | -1.05 | 0.01 | – |
| CG5334 | DRSC19941 | 0.05 | 0.38 | – |
| Loxl1 (Lysyl oxidase-like 1) | DRSC14303 | 0.39 | 0.35 | – |
| Nagk (N-acetylglucosamine kinase) | DRSC15994 | 0.42 | 0.46 | – |
| pgc (polar granule component) | DRSC04099 | 0.31 | 0.48 | – |
| Ciao1 | DRSC06170 | 0.48 | 0.51 | – |
| Epg5 (ectopic P-granules autophagy protein 5) | DRSC14778 | 0.32 | 0.42 | – |
| Pi3K68D (Phosphatidylinositol 3-kinase 68D) | DRSC11253 | -0.05 | 0.22 | – |
| CG6891 | DRSC20016 | 0.26 | 0.35 | – |
| CG30195 | DRSC04155 | 0.2 | 0.3 | – |
| CG7985 | DRSC14128 | 0.3 | 0.37 | – |
| CG3457 | DRSC18509 | 0.51 | 0.48 | – |
| Syn1 (Syntrophin-like 1) | DRSC11803 | 0.16 | 0.34 | – |
| Syn1 (Syntrophin-like 1) | DRSC11804 | 0.33 | 0.45 | – |
| msopa (male-specific opa containing gene) | DRSC11895 | -0.94 | -1.17 | – |
| PIG-F (Phosphatidylinositol glycan anchor biosynthesis class F) | DRSC11069 | 0.26 | 0.17 | – |
| Irc (Immune-regulated catalase) | DRSC16454 | 0.16 | 0.29 | – |
| RpL5 (Ribosomal protein L5) | DRSC03801 | -5.01 | -2.99 | reduced secretion |
| CG17564 | DRSC02626 | 2.45 | 0.56 | – |
| pbl (pebble) | DRSC11381 | -0.41 | -0.6 | – |
| CG8343 | DRSC04905 | 0.06 | 0.1 | – |
| CG14507 | DRSC14859 | 0.07 | 0.27 | – |
| CG43190 | DRSC05316 | 0.01 | 0.36 | – |
| CG15332 | DRSC18015 | 0.29 | 0.46 | – |
| SecS (Sec synthetase) | DRSC12222 | 0.32 | 0.24 | – |
| CG5388 | DRSC15789 | 0.34 | 0.31 | – |
| CG15890 | DRSC19737 | 0.35 | 0.1 | – |
| robl (roadblock) | DRSC07674 | 0.57 | 0.27 | – |
| ave (aveugle) | DRSC05502 | 0.46 | -0.14 | – |
| CG9928 | DRSC03274 | -0.45 | 0 | – |
| Nepl12 (Neprilysin-like 12) | DRSC16411 | 0.12 | 0.14 | – |
| CAHbeta (Carbonic anhydrase beta) | DRSC14449 | 0.55 | 0.46 | – |

Look-ups from above.
For “z-score, replicate 1”, robl (roadblock) [DRSC07674] is entered as 0.57
CG14624 [DRSC18634], z-score, replicate 1 → 0.32
Under “phenotype, replicate 1”, Nf-YA (Nuclear factor Y-box A) [DRSC10385] is entered as reduced secretion
Result for CG5334 [DRSC19941] under “z-score, replicate 1”: 0.05
CG46339 [DRSC14136], z-score, replicate 1 = 0.24
Under “z-score, replicate 2”, CG15332 [DRSC18015] has 0.46
